Results from PubChem BioAssay (NCATS).
This list was built around the results that the source calls inconclusive (neither active nor inactive); the mix of calls is not that of the screen. Potencies beside an inconclusive call are fits to weak or partial responses and may not hold up. The source made the active and inactive calls. The call rests on the fitted dose curve; in most records, active means well fitted cell-killing curve with a large enough effect; inconclusive means small, poorly fitted or top-dose-only effect, or effect the other way; inactive means no such curve, though single readings can be large or run the other way.

Key:
[1] = Quantitative High-Throughput drug screen in 47 multiple myeloma cell lines against the NCATS MIPE library collection: KHM11_PLB cell viability assay (AID 1918962); settings: KHM11 myeloma cell viability, CellTiter-Glo ATP luminescence, 48 h; viability, % of DMSO control: at 45.8 µM (top of the series) unless noted; further: nearly all actives have a fitted effect of over 35% in size
Summary of the method: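 qHTS of the MIPE 4.0 collection: 500 myeloma cells/well, 48 h drug exposure at 37C in 5% CO2, then CellTiter-Glo for 5 min at room temperature before luminescence reading.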

[2] = Quantitative High-Throughput drug screen in 47 multiple myeloma cell lines against the NCATS MIPE library collection: JIM1_ECACC cell viability assay (AID 1918964); settings: JIM1 myeloma viability, CellTiter-Glo ATP luminescence, 48 h; viability (% of DMSO): at 45.8 µM (top of the series)
Summary of the method: (§1)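 CellTiter-Glo luminescence (ATP) after 48 h compound exposure, 37C/5% CO2; 500 cells/well; MIPE 4.0 approved/investigational drugs pinned in; DMSO = 100%, media only = 0% viability.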

[3] = Quantitative High-Throughput drug screen in 47 multiple myeloma cell lines against the NCATS MIPE library collection: INA6_PLB cell viability assay (AID 1918965; further: nearly all actives have a fitted effect of over 55% in size); settings: INA6 myeloma viability, CellTiter-Glo ATP luminescence, 48 h; viability (% of control): at 45.8 µM (top of the series) unless noted
Summary of the method: (§2)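 Luminescent ATP measurement with CellTiter-Glo gives viability, scaled between DMSO-only wells (100%) and media-only wells (0%). Cells, 500 per well, faced library compounds for 48 hours at 37C.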

[4] = Quantitative High-Throughput drug screen in 47 multiple myeloma cell lines against the NCATS MIPE library collection: JJN3_DSMZ cell viability assay (AID 1918966; further: nearly all actives have a fitted effect of over 50% in size); settings: JJN3 myeloma cells viability, CellTiter-Glo ATP, 48 h; series mostly up to 45.8 µM
Summary of the method: as §1

[5] = Quantitative High-Throughput drug screen in 47 multiple myeloma cell lines against the NCATS MIPE library collection: H1112_PLB cell viability assay (AID 1918967; further: nearly all actives have a fitted effect of over 30% in size); settings: H1112 myeloma cells viability, ATP luminescence, 48 h; series mostly up to 45.8 µM
Summary of the method: as §1

[6] = Quantitative High-Throughput drug screen in 47 multiple myeloma cell lines against the NCATS MIPE library collection: KMS27_JCRB cell viability assay (AID 1918970); settings: KMS27 myeloma cells, CellTiter-Glo ATP viability, 48 h; viability (% of DMSO): at 45.8 µM (top of the series); further: nearly all actives have a fitted effect of over 30% in size
Summary of the method: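 Myeloma cells (500 per well) were exposed to MIPE 4.0 compounds for 48 h at 37 °C, 5% CO2; viability was read as ATP luminescence with CellTiter-Glo, normalized to DMSO-only (100%) and media-only (0%) wells.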

[7] = Quantitative High-Throughput drug screen in 47 multiple myeloma cell lines against the NCATS MIPE library collection: Karpas25_ECACC cell viability assay (AID 1918968; further: nearly all actives have a fitted effect of over 35% in size); settings: Karpas25 myeloma viability, CellTiter-Glo ATP, 48 h; series mostly up to 45.8 µM
Summary of the method: as §1

[8] = Quantitative High-Throughput drug screen in 47 multiple myeloma cell lines against the NCATS MIPE library collection: KMS12BM_JCRB cell viability assay (AID 1918971); settings: KMS12BM myeloma viability, CellTiter-Glo ATP, 48 h; viability, % of DMSO: at 45.8 µM (top of the series); further: nearly all actives have a fitted effect of over 35% in size
Summary of the method: as §1

[9] = Quantitative High-Throughput drug screen in 47 multiple myeloma cell lines against the NCATS MIPE library collection: KMS12PE_JCRB cell viability assay (AID 1918972); settings: KMS12PE myeloma viability, CellTiter-Glo ATP, 48 h; viability: at 45.8 µM (top of the series); further: nearly all actives have a fitted effect of over 30% in size
Summary of the method: as §2
Potency means the concentration at half of the fitted maximal effect.

Row | Compound | Potency [1] | Potency [2] | Potency [3] | Potency [4] | Potency [5] | Potency [6] | Potency [7] | Potency [8] | Potency [9] | viability (% of DMSO) [2]
1 | C#CCN(C)CC1=Cc2ccccc2Oc2ccccc21 | inconclusive: 1.5 nM [rising, full curve, poor fit] | inactive | inconclusive: 0.0372 µM [rising, full curve, poor fit] | inconclusive: 26.4 µM [cytotoxic, partial curve, poor fit] | inactive | inconclusive: 41.8 nM [cytotoxic, full curve, poor fit] |  |  |  | 
2 | Cc1cn(-c2cc(NC(=O)c3ccc(C)c(Nc4nccc(-c5cccnc5)n4)c3)cc(C(F)(F)F)c2)cn1 | inactive | inconclusive: 2090 nM [cytotoxic, full curve, poor fit] | inconclusive: 0.743 µM [cytotoxic, full curve, poor fit] | active: 18.7 µM |  | inconclusive: 1050 nM [cytotoxic, full curve, poor fit] | inactive |  |  | 
3 | CC(NCCc1ccc(O)cc1)C(O)c1ccc(O)cc1 (stereo not given) | inactive | inactive | inactive | inactive |  | inactive | inconclusive: 0.372 µM [cytotoxic, full curve] | inactive |  | 
4 | C=C1CCC2[C@](C)(CO)C(O)CC[C@]2(C)C1CC=C1C(=O)OCC1O (stereo not given in full) | inactive | inconclusive: 4.3 nM [cytotoxic, full curve, poor fit] | inactive | inconclusive: 0.027 µM [cytotoxic, full curve, poor fit] | inactive | inconclusive: 171 nM [cytotoxic, full curve, poor fit] |  | inconclusive: 60.5 µM [cytotoxic, partial curve, poor fit] |  | 
5 | N#CC(=C(O)c1ccc(Cl)cc1Cl)c1nc2cc(Cl)ccc2c(=O)[nH]1 | inactive | inconclusive: 93.5 nM [cytotoxic, full curve, poor fit] | inactive | inconclusive: 6.62 µM [cytotoxic, partial curve, poor fit] | inconclusive: 26.4 µM [cytotoxic, single point] |  | inconclusive: 83.3 µM [cytotoxic, single point] | inactive |  | 
6 | CCN(CC)CCOc1ccc(Cc2ccccc2)cc1 | inactive | inconclusive: 743 nM [cytotoxic, full curve, poor fit] | inconclusive: 2.96 µM [cytotoxic, full curve, poor fit] | inconclusive: 14.8 µM [cytotoxic, partial curve, poor fit] | inactive | inconclusive: 37200 nM [cytotoxic, single point] | active: 14.8 µM | inconclusive: 16.6 µM [cytotoxic, partial curve, poor fit] | inconclusive: 33.2 µM [cytotoxic, single point] | 
7 | Cn1c(CNc2ccc(C(=N)N)cc2)nc2cc(C(=O)N(CCC(=O)O)c3ccccn3)ccc21 | inactive | inactive | inconclusive: 0.0006 µM [cytotoxic] | inconclusive: 5.75 µM [rising, single point] |  |  | inconclusive: 18.2 µM [cytotoxic, single point] |  |  | 
8 | CN(C)CCCC1(c2ccc(F)cc2)OCc2cc(C#N)ccc21 (stereo not given) | inactive |  | inconclusive: 18.7 µM [cytotoxic, partial curve, poor fit] | inconclusive: 23.5 µM [cytotoxic, partial curve, poor fit] | active: 8.33 µM | inactive |  | inconclusive: 23.5 µM [cytotoxic, partial curve, poor fit] | inactive | inconclusive: 48.9% [cytotoxic]
9 | CCN1CCCC1CNC(=O)c1cc(S(=O)(=O)CC)c(N)cc1OC (stereo not given) | inconclusive: 18700 nM [cytotoxic, partial curve, poor fit] | inactive | inactive | inactive | inactive |  | inactive | inconclusive: 23.5 µM [cytotoxic, partial curve, poor fit] |  | 
10 | S=P(N1CC1)(N1CC1)N1CC1 | inconclusive: 29.6 nM [rising, full curve, poor fit] | inconclusive: 16600 nM [rising, partial curve, poor fit] | inconclusive: 37.2 µM [cytotoxic, partial curve, poor fit] | active: 0.0118 µM | inconclusive: 3.72 µM [cytotoxic, full curve, poor fit] |  | inactive | inconclusive: 13.2 µM [cytotoxic, partial curve, poor fit] | inactive | 
11 | COC(=O)N[C@H](C(=O)N[C@@H](Cc1ccccc1)[C@@H](O)CN(Cc1ccc(-c2ccccn2)cc1)NC(=O)[C@@H](NC(=O)OC)C(C)(C)C)C(C)(C)C | inactive | inconclusive: 5.9 nM [cytotoxic, full curve, poor fit] | inactive | inconclusive: 20.9 µM [cytotoxic, partial curve, poor fit] | inactive |  | inconclusive: 0.0066 µM [cytotoxic, full curve, poor fit] | active: 20.9 µM |  | 
12 | CCCCn1c(=O)n(Cc2ccccc2F)c(=O)c2[nH]c(Cc3ccc(NC(C)=O)cc3)nc21 | inconclusive: 833 nM [cytotoxic, full curve, poor fit] | active: 4.2 nM | inconclusive: 18.7 µM [cytotoxic, partial curve, poor fit] | inconclusive: 14.8 µM [cytotoxic, partial curve, poor fit] | inactive |  | inconclusive: 33.2 µM [cytotoxic, single point] | inconclusive: 23.5 µM [cytotoxic, partial curve, poor fit] |  | 
13 | COc1cc2c(cc1OC)CN(CCc1ccc(NC(=O)c3cccc4c(=O)c5cccc(OC)c5[nH]c34)cc1)CC2 | inconclusive: 14.8 nM [rising, full curve, poor fit] | inactive | inconclusive: 20.9 µM [cytotoxic, partial curve, poor fit] | inconclusive: 5.9 µM [rising, partial curve, poor fit] | inconclusive: 11.8 µM [cytotoxic, single point] | inconclusive: 1.9 nM [rising, full curve, poor fit] | inconclusive: 11.8 µM [cytotoxic, single point] | inconclusive: 0.0017 µM [rising, full curve, poor fit] | inconclusive: 0.0033 µM [rising, full curve] | 
14 | COc1cc2nc(N(C)CCCNC(=O)C3CCCO3)nc(N)c2cc1OC (stereo not given) | inactive | inconclusive: 41.8 nM [rising, full curve, poor fit] | inconclusive: 0.0013 µM [rising, full curve, poor fit] | inconclusive: 0.0042 µM [rising, full curve, poor fit] | inactive | inconclusive: 23.5 nM [rising, full curve] | inactive | inconclusive: 0.0021 µM [rising, full curve, poor fit] | inactive | 
15 | C[C@@H]1[C@H](C)CC[C@]2(C(=O)O)CC[C@]3(C)C(=CC[C@@H]4[C@@]5(C)C[C@@H](O)[C@H](O)[C@@](C)(CO)[C@H]5CC[C@]43C)[C@@H]12 | inconclusive: 662 nM [rising, full curve, poor fit] | inconclusive: 11800 nM [cytotoxic, partial curve, poor fit] | inconclusive: 1.87 µM [cytotoxic, full curve, poor fit] | inconclusive: 0.0015 µM [rising, full curve, poor fit] |  | inactive | inactive | inconclusive: 0.0093 µM [rising, full curve, poor fit] |  | 
16 | CCC(=O)O[C@]1(C(=O)CCl)[C@@H](C)C[C@H]2[C@@H]3CCC4=CC(=O)C=C[C@]4(C)[C@@]3(F)[C@@H](O)C[C@@]21C | inactive | inconclusive: 16600 nM [cytotoxic, partial curve] | inconclusive: 20.9 µM [cytotoxic, partial curve, poor fit] | inconclusive: 0.526 µM [cytotoxic, partial curve, poor fit] |  | inconclusive: 18700 nM [cytotoxic, single point] | inconclusive: 0.0059 µM [cytotoxic, full curve] |  |  | 
17 | C[C@H](c1ccc(F)cc1CCCC(=O)O)N(c1cc(F)ccc1F)S(=O)(=O)c1ccc(Cl)cc1 | inconclusive: 20900 nM [cytotoxic, partial curve, poor fit] | inconclusive: 83.3 nM [cytotoxic, partial curve, poor fit] | inconclusive: 33.2 µM [cytotoxic, single point] | inconclusive: 0.0209 µM [cytotoxic, full curve, poor fit] | inconclusive: 7.43 µM [cytotoxic, partial curve] |  |  |  |  | 

Two neighbouring compounds out of the list so far, for reference:
Row | Compound | Potency [1] | Potency [2] | Potency [3] | Potency [4] | Potency [5] | Potency [6] | Potency [7] | Potency [8] | Potency [9] | viability (% of DMSO) [2]
8 | CN(C)CCCC1(c2ccc(F)cc2)OCc2cc(C#N)ccc21 (stereo not given) | inactive |  | inconclusive: 18.7 µM [cytotoxic, partial curve, poor fit] | inconclusive: 23.5 µM [cytotoxic, partial curve, poor fit] | active: 8.33 µM | inactive |  | inconclusive: 23.5 µM [cytotoxic, partial curve, poor fit] | inactive | inconclusive: 48.9% [cytotoxic]
9 | CCN1CCCC1CNC(=O)c1cc(S(=O)(=O)CC)c(N)cc1OC (stereo not given) | inconclusive: 18700 nM [cytotoxic, partial curve, poor fit] | inactive | inactive | inactive | inactive |  | inactive | inconclusive: 23.5 µM [cytotoxic, partial curve, poor fit] |  | 
